Source: US20120277409A1, “METAL-POLYSACCHARIDE CONJUGATES: COMPOSITIONS, SYNTHESIS AND METHODS FOR CANCER THERAPY” (priority 2007, published 2012)

Test system: melanoma
Assay: MRI (1.5 T) of melanoma-bearing pig
Type: in vivo
[1] = 0.13 mmol/kg iv, post-injection

Substance: Gd-EDTA-chitosan
- percentage (%) of tumor enhancement compared to precontrast signal intensity (0.13 mmol/kg iv, 5, 30 and 60 min): 16.3-30.5%
- tumor imaging (in words) (0.13 mmol/kg iv, 5, 30 and 60 min post-injection): the tumor could be imaged
- time of maximal tumor signal intensity [1]: 30 min
- time of optimal tumor enhancement [1]: 30 min
